# Results taken from the supplement of paper PMC10849652.
# The chains behind the UniProt entries cited, without tags or fusion partners. Where a name states a change or a piece, a line headed by the entry shows the natural chain unless it says otherwise.
# UniProt Q9NV92: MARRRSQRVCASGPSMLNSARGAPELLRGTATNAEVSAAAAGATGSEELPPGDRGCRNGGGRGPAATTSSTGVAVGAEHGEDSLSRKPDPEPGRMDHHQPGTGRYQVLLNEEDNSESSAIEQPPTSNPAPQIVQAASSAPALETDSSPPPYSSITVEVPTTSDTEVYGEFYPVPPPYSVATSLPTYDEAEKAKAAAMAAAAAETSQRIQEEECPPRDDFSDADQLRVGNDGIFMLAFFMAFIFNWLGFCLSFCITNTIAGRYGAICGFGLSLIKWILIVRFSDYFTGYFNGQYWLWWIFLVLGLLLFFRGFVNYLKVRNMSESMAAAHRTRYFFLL
# UniProt Q7L592: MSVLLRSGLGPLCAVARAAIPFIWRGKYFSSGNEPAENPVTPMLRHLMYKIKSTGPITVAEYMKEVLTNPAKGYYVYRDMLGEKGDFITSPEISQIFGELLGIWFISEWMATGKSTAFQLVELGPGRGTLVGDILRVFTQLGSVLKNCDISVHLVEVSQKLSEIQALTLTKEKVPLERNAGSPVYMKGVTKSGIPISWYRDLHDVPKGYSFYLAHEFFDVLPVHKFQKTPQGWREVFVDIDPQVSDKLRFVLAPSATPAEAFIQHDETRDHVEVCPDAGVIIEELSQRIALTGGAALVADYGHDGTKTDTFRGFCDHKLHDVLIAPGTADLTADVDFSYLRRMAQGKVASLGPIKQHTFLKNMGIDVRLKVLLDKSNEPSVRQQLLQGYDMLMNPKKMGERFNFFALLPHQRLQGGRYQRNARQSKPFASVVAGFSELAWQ
# UniProt Q02083: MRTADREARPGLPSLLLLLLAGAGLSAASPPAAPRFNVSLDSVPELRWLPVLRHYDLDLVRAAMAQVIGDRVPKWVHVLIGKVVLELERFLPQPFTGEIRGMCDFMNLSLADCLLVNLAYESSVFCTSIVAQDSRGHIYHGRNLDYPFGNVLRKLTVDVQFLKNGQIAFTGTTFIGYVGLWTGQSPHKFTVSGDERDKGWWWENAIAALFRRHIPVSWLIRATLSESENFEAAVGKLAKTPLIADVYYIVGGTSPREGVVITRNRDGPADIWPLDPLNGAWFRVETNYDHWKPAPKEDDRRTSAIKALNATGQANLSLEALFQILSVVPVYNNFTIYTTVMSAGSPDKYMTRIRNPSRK
# UniProt Q9Y6Q9, whole entry, looked up: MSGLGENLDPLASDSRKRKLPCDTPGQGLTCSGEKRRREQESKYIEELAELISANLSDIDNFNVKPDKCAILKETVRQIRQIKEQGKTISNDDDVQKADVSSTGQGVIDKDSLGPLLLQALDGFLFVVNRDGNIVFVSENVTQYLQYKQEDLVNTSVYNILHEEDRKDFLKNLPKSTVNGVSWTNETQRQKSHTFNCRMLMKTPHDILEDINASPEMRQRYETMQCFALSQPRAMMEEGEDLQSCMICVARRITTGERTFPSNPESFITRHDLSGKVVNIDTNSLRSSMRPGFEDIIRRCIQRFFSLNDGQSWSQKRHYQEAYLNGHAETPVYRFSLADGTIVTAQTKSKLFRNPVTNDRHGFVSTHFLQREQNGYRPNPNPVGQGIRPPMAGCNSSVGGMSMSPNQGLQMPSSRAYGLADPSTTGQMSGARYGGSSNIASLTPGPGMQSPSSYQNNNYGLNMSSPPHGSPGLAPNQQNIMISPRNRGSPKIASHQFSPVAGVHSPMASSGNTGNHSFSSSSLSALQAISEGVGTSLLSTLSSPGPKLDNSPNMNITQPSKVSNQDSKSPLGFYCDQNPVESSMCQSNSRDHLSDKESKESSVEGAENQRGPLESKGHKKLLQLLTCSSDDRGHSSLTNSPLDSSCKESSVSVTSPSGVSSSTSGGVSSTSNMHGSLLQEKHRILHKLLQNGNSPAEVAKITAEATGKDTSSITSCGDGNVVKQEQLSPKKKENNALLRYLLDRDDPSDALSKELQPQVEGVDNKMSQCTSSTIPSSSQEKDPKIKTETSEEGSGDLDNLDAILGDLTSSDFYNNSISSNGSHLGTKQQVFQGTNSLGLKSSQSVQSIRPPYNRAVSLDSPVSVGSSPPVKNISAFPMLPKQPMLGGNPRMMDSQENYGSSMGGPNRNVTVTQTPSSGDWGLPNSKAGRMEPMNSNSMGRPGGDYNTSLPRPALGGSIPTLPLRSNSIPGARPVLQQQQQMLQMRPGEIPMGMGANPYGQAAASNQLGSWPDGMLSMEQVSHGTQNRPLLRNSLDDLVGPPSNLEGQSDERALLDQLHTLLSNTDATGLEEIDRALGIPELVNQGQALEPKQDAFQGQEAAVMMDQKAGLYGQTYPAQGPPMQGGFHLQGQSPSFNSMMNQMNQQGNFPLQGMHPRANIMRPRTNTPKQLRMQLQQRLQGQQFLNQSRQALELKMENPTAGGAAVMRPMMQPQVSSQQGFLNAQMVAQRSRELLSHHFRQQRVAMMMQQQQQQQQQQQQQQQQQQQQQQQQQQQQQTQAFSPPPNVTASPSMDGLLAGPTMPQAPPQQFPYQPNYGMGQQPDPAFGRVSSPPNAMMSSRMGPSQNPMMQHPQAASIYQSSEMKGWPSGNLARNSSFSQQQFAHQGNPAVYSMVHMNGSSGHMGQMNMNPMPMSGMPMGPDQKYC
# UniProt P52849: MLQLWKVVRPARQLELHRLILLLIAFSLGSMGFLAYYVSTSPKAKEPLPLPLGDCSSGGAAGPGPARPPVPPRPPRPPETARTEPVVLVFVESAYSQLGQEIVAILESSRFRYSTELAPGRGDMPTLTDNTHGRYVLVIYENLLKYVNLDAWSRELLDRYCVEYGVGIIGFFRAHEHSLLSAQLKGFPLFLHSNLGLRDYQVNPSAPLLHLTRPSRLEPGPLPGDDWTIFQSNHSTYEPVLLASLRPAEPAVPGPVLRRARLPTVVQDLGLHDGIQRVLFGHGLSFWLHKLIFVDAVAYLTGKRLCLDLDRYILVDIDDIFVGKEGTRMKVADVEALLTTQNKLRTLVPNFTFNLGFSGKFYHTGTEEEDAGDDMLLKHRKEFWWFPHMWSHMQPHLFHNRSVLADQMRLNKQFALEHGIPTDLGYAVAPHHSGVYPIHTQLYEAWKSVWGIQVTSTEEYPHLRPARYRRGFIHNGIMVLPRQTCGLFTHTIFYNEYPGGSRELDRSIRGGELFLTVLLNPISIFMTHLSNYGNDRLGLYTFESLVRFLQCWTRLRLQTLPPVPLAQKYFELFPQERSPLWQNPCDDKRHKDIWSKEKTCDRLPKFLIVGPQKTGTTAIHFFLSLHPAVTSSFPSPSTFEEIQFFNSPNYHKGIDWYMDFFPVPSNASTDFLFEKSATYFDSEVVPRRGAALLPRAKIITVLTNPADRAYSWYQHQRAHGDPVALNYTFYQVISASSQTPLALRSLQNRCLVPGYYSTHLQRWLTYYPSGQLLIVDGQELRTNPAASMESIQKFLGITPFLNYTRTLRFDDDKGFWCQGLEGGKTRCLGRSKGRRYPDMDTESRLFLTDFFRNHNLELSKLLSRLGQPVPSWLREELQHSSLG
# UniProt Q14686, whole entry, looked up: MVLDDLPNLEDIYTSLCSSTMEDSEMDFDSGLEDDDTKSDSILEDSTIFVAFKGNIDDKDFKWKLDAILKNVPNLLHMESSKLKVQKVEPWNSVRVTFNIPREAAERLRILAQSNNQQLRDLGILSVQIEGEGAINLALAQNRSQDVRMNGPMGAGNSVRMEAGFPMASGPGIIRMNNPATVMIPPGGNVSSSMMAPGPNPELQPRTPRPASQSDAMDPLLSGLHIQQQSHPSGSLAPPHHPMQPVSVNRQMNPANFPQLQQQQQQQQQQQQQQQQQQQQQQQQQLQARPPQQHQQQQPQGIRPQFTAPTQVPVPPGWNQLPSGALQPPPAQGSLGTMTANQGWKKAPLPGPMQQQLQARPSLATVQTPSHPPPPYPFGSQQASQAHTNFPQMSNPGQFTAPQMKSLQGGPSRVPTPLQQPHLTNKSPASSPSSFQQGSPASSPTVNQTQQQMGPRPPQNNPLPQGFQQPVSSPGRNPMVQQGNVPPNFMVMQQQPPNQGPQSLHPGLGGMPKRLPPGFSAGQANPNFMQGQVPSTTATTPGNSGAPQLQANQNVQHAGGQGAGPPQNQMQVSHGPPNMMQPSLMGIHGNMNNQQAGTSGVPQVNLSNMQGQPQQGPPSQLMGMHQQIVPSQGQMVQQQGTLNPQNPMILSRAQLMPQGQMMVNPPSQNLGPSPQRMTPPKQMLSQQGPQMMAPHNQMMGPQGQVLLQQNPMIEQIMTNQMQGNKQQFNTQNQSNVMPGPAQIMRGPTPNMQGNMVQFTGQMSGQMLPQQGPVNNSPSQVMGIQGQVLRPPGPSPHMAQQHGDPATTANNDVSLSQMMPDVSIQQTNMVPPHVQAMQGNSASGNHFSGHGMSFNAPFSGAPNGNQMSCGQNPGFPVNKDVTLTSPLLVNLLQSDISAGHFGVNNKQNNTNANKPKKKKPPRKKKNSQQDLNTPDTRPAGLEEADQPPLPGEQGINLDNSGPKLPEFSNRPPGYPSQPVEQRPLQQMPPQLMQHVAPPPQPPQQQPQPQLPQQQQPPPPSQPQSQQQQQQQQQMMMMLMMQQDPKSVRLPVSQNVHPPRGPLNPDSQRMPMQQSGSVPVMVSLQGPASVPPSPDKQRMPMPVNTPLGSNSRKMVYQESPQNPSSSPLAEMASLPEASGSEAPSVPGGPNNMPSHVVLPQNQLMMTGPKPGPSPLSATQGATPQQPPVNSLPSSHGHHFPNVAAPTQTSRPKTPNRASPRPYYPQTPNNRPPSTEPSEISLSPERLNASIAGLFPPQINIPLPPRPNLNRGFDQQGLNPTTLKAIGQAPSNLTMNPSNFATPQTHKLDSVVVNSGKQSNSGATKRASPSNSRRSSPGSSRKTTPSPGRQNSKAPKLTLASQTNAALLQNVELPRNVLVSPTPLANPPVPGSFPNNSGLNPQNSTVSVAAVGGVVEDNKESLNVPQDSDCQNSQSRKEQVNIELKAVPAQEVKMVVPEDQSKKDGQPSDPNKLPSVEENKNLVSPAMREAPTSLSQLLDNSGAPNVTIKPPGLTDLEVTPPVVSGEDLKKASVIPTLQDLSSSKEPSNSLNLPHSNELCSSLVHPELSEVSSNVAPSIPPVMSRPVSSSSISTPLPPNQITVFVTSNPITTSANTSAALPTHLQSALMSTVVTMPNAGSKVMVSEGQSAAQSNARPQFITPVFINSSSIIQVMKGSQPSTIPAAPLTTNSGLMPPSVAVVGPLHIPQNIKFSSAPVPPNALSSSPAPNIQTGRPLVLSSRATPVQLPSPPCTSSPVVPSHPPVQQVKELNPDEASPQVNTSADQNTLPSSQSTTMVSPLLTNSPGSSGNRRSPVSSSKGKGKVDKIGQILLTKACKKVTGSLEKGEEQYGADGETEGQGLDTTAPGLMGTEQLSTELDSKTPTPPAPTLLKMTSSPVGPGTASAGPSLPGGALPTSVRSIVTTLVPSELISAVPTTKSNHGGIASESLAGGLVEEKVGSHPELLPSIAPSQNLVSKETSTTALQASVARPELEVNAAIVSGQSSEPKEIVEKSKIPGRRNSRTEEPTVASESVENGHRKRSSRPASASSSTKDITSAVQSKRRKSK
# UniProt O75438, whole entry, looked up: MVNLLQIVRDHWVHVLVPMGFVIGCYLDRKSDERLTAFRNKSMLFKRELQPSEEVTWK
# UniProt Q9GZM8: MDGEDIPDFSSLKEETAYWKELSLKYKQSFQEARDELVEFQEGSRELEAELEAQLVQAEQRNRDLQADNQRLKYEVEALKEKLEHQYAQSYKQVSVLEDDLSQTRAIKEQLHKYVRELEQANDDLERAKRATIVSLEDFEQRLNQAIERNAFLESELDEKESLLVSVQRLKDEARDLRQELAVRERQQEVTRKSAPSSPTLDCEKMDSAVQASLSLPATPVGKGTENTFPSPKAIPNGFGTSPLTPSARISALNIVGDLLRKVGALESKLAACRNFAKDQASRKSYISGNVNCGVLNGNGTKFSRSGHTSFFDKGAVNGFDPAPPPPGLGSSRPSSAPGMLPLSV
# UniProt Q13772: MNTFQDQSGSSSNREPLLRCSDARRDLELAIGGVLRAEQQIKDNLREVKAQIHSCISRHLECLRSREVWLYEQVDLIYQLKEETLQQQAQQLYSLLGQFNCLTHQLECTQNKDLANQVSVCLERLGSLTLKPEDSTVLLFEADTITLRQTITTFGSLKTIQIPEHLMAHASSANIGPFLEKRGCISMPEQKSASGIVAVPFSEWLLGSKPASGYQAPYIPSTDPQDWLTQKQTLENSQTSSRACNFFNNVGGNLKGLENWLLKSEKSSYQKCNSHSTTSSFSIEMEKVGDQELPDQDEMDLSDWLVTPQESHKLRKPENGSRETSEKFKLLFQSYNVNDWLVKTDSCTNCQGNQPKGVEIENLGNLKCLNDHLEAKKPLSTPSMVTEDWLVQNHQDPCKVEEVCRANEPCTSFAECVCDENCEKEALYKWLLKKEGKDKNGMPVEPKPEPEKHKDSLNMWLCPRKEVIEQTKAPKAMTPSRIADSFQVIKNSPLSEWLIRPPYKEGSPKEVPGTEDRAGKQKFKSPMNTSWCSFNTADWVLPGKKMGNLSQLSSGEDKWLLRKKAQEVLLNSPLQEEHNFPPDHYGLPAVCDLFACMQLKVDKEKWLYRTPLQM
# NBDY, A0A0U1RRE5, UniProt A0A0U1RRE5, whole entry, looked up: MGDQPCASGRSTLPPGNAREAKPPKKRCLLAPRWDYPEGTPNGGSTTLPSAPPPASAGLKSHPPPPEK
# The list shows a part of the results.
# Compound: CN1CCN(c2nc(C3=C(c4c[nH]c5ccccc45)C(=O)NC3=O)c3ccccc3n2)CC1 [sotrastaurin]
# Test: log2 fold change, soluble protein after heating vs DMSO (PISA); higher = thermal stabilisation; K562 cells, 10 uM, 30 min; active = over 0.2 and 3.5 SD of the protein, either way, in both replicates (recomputed)
# How it was run: (§1)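 Aliquots of K562 cells (2×10^6 cells/mL) treated with 10 μM compound for 30 min were heated for 3 min over 48°C-58°C. After pooling and extraction in PBS with 0.5% NP-40 at 4°C, soluble protein from a 21,000xg, 90 min spin was quantified by TMTpro 16plex LC-MS/MS with channel sums equalised. Thermal stability is expressed against control samples, from duplicates, as a log2 fold change.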
row,Target,log2 fold change
1,NDFIP2 (UniProt Q9NV92),inactive: 0.201
2,NDUFAF7 (UniProt Q7L592),inactive: 0.069
3,NDUFA7 (UniProt M0R0N0),inactive: 0.201
4,NDUFV1 (UniProt E9PJL9),inactive: 0.162
5,NA (UniProt B2RBV5),inactive: -0.057
6,NAAA (UniProt Q02083),inactive: -0.154
7,NCOA3 (UniProt Q9Y6Q9),inactive: -0.157
8,MYSM1 (UniProt Q5VVJ2),inactive: -0.294
9,NDST2 (UniProt P52849),inactive: 0.054
10,NDUFAB1 (UniProt O14561),inactive: 0.027
11,NDRG2 (UniProt G3V392),inactive: 0.064
12,NCOA6 (UniProt Q14686),inactive: 0.057
13,NDUFB1 (UniProt O75438),inactive: 0.015

# Compound: CN1CC[C@H](c2c(O)cc(O)c3c(=O)cc(-c4ccccc4Cl)oc23)[C@H](O)C1 [alvocidib]
# Test: as above
# How it was run: as §1
row,Target,log2 fold change
1,NDUFAF7 (UniProt Q7L592),inactive: -0.142
2,NDEL1 isoform 2 (UniProt Q9GZM8),inactive: -0.043
3,NBEAL2 (UniProt Q6ZNJ1),inactive: -0.031
4,NEK1 isoform 3 (UniProt Q96PY6),inactive: 0.014
5,NAAA (UniProt Q02083),inactive: 0.059
6,NCOA3 (UniProt Q9Y6Q9),inactive: -0.137
7,NAA40 (UniProt Q86UY6),inactive: 0.224
8,NCOA4 isoform 4 (UniProt Q13772),inactive: 0.192
9,NCOA1 (UniProt Q15788),inactive: -0.095
10,NDUFAB1 (UniProt O14561),inactive: -0.062
11,"NBDY, A0A0U1RRE5",inactive: 0.109
12,NDUFC1 (UniProt O43677),inactive: -0.05
13,NEB isoform 3 (UniProt P20929),inactive: 0.139

# Compound: CN1CCc2c(c3ccccc3n2Cc2ccc(C(=O)NO)cc2)C1 [Tubastatin A]
# Test: as above
# How it was run: as §1
row,Target,log2 fold change
1,NDFIP2 (UniProt Q9NV92),inactive: -0.096
2,"NA, A0A1W2PSA9",inactive: -0.17
3,NDUFAF7 (UniProt Q7L592),inactive: 0.037
4,NDUFV1 (UniProt E9PJL9),inactive: -0.138
5,NDEL1 isoform 2 (UniProt Q9GZM8),inactive: 0.03
6,NCOA3 (UniProt Q9Y6Q9),inactive: -0.083
7,NAA40 (UniProt Q86UY6),inactive: 0.134
8,"NA, A0A494C071",inactive: -0.197
9,NDST2 (UniProt P52849),inactive: 0.035
10,NCOA1 (UniProt Q15788),inactive: -0.023
11,NDUFAB1 (UniProt O14561),inactive: 0.029
12,"NBDY, A0A0U1RRE5",inactive: -0.004
13,NCOA6 (UniProt Q14686),inactive: -0.012
14,NDUFB1 (UniProt O75438),inactive: -0.09

# Compound: CNC(=O)C1=CC=CC=C1NC2=NC(=NC=C2Cl)NC3=C(C=C(C=C3)N4CCOCC4)OC
# Test: as above
# How it was run: as §1
row,Target,log2 fold change
1,NDFIP2 (UniProt Q9NV92),inactive: 0.168
2,NDUFAF7 (UniProt Q7L592),inactive: -0.038
3,NDUFA7 (UniProt M0R0N0),inactive: -0.195
4,NDEL1 isoform 2 (UniProt Q9GZM8),inactive: 0.052
5,NCAPH2 isoform 4 (UniProt Q6IBW4),inactive: -0.061
6,NBEAL2 (UniProt Q6ZNJ1),inactive: -0.16
7,NDRG1 (UniProt Q92597),inactive: -0.013
8,NAIP (UniProt Q13075),inactive: -0.136
9,NEK1 isoform 3 (UniProt Q96PY6),inactive: -0.142
10,NAAA (UniProt Q02083),inactive: 0.138
11,NCOA3 (UniProt Q9Y6Q9),inactive: 0.029
12,NAP1L1 (UniProt B7Z9C2),inactive: 0.041
13,NDST2 (UniProt P52849),inactive: -0.229
14,NCOA1 (UniProt Q15788),inactive: -0.019
15,NCKIPSD (UniProt Q9NZQ3),inactive: 0.252
16,NDUFAB1 (UniProt O14561),inactive: 0.102
17,"NBDY, A0A0U1RRE5",inactive: -0.14
18,NDRG2 (UniProt G3V2A6),inactive: 0.062
19,NCOA6 (UniProt Q14686),inactive: -0.023
20,NDUFC1 (UniProt O43677),inactive: 0.046
21,NEB isoform 3 (UniProt P20929),inactive: 0.029
22,NDUFB1 (UniProt O75438),inactive: -0.01

# Compound: CNC(=O)c1ccc(Nc2ncc(C(F)(F)F)c(NCc3nccnc3N(C)S(C)(=O)=O)n2)cc1 [defactinib]
# Test: as above
# How it was run: as §1
row,Target,log2 fold change
1,NDUFAF7 (UniProt Q7L592),inactive: -0.115
2,NDUFA7 (UniProt M0R0N0),inactive: 0.076
3,NDUFV1 (UniProt E9PJL9),inactive: 0.253
4,NDEL1 isoform 2 (UniProt Q9GZM8),inactive: -0.106
5,NEK1 isoform 3 (UniProt Q96PY6),inactive: 0.199
6,NCCRP1 (UniProt Q6ZVX7),inactive: -0.092
7,NCOA3 (UniProt Q9Y6Q9),inactive: -0.206
8,NAA40 (UniProt Q86UY6),inactive: 0.046
9,NAP1L1 (UniProt B7Z9C2),inactive: -0.117
10,"NA, A0A494C071",inactive: 0.044
11,NDST2 (UniProt P52849),inactive: -0.11
12,NCOA1 (UniProt Q15788),inactive: 0
13,NCKIPSD (UniProt Q9NZQ3),inactive: -0.168
14,NDUFAB1 (UniProt O14561),inactive: -0.071
15,NCOA6 (UniProt Q14686),inactive: -0.222
16,NEB isoform 3 (UniProt P20929),inactive: -0.148
17,NCKAP5L (UniProt Q9HCH0),inactive: -0.194
18,NDUFB1 (UniProt O75438),inactive: -0.021
